Measurements: US20250388583A1, “COMPOUNDS AND METHOD FOR PKMYT1 INHIBITION” (Engine Biosciences Pte. Ltd., priority 2022, published 2025)
The structures given here were assigned with low confidence; some may be wrong.

Sequences of proteins named here, by UniProt entry; tags and fusion partners are left off.
UniProt P06239, whole entry: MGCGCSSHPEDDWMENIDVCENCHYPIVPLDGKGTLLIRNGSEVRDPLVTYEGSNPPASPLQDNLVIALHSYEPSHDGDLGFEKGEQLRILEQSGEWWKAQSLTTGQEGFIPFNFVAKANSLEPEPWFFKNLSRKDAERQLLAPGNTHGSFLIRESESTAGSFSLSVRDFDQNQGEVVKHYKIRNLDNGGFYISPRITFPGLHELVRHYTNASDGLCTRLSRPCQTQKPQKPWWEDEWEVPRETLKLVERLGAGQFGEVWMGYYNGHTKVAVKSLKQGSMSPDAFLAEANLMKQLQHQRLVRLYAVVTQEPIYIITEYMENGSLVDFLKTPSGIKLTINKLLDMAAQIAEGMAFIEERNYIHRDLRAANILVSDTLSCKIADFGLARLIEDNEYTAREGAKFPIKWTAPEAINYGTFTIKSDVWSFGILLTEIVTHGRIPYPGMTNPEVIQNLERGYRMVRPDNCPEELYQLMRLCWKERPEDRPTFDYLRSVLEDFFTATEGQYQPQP
UniProt Q99640, whole entry: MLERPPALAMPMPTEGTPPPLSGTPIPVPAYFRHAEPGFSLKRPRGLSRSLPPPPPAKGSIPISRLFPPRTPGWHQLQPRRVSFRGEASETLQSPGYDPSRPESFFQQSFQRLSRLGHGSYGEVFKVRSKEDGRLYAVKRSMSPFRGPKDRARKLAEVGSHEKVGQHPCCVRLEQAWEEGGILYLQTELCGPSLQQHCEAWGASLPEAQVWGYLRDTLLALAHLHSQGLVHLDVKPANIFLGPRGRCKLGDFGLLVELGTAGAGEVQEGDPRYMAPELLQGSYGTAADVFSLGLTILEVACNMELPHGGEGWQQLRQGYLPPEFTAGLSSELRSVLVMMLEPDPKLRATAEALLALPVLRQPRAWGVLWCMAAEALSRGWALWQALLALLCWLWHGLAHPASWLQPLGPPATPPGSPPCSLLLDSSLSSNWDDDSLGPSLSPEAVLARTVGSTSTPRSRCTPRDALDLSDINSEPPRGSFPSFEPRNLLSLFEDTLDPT

Experiments:
LCK = LCK (Homo sapiens (Human), UniProt P06239); test: In vitro assay: kinase binding to immobilized ligand, captured kinase measured by qPCR; settings: read-out: LCK (IC50 = nM)
PKMYT1 = PKMYT1 (Homo sapiens (Human), UniProt Q99640); test: as above; settings: read-out: PKMYT1 (IC50 = nM)

IC50 (LCK) [nM] | IC50 (PKMYT1) [nM] | Compound
< 50 | < 50 | Cc1ccc(O)c(C)c1-n1c(N)c(C(N)=O)c2cnc(/C=C\C3CC3)nc21
– | < 50 | CCOc1ncc2c(C(N)=O)c(N)n(-c3c(C)ccc(O)c3C)c2n1
< 50 | < 50 | CCC(C)c1ncc2c(C(N)=O)c(N)n(-c3c(C)ccc(O)c3C)c2c1F (centres unmarked)
50 to 100 | < 50 | Cc1ccc(O)c(C)c1-n1c(N)c(C(N)=O)c2cnc(C(C)C)nc21
– | 100 to 1000 | Cc1ncc(O)c(C)c1-n1c(N)c(C(N)=O)c2cncc(F)c21
< 50 | 50 to 100 | CCN(CC)c1ncc2c(C(N)=O)c(N)n(-c3c(C)ccc(O)c3C)c2c1F
– | < 50 | Cc1ccc(O)c(C)c1-n1c(N)c(C(N)=O)c2cnc(NCC(O)CC(F)(F)F)nc21 (centres unmarked)
– | 100 to 1000 | Cc1ncc(O)c(C)c1-n1c(N)c(C(N)=O)c2cnc(C)c(F)c21
50 to 100 | < 50 | Cc1ccc(O)c(C)c1-n1c(N)c(C(N)=O)c2cnc(C3(C(F)(F)F)CC3)nc21
50 to 100 | < 50 | CCC(C)c1ncc2c(C(N)=O)c(N)n(-c3c(C)ccc(O)c3C)c2n1 (centres unmarked)
50 to 100 | < 50 | Cc1ccc(O)c(C)c1-n1c(N)c(C(N)=O)c2cnc(Cl)c(F)c21
< 50 | < 50 | Cc1ccc(O)c(C)c1-n1c(N)c(C(N)=O)c2cnc(C(C)C)c(F)c21
